# Source: PubChem BioAssay AID2685 (National Center for Advancing Translational Sciences (NCATS), 2010)
# The other results are listed elsewhere or left out. The main result of the screen is listed elsewhere. These columns were measured beside it and carry no call. The list favours compounds with an active or inconclusive main result. Words in brackets tell the shape of the fitted curve; partial curves, single points and poor fits give uncertain potencies.
# Test: qHTS Assay for Lipid Storage Modulators in Drosophila S3 Cells;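 as to cell number change: cells counted by Cell Tracker Red CMTPX staining in the red channel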
# Conditions: BODIPY lipid droplet fluorescence, 18-24 h; for cell number change: measured here: cell count max response, cells fed with added oleic acid
# Summary of the method: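 Drosophila S3 cells loaded with oleic acid (400 uM, as added) and compounds at several concentrations; lipid droplets imaged by 488-nm laser-scanning cytometry, 500–530 nm intensity and object ratio to cell channel. Percent activity normalized to 20 uM Triacsin C.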
# [1] = measured here: lipid fluorescence (Fed channel) AC50, cells fed with added oleic acid
# [2] = measured here: cell number channel AC50, cells fed with added oleic acid
Structure (SMILES),AC50 [1],cell number change [%],AC50 [2]
COc1cccc(N2CCN(C(=O)c3ccc(CS(=O)c4ccc(C)cc4)o3)CC2)c1 (stereo not drawn),"29.1 µM [falling, single point]",–,–
O=C(CCSc1ccc(Cl)c(Cl)c1)NC12CC3CC(CC(C3)C1)C2,"29.1 µM [falling, single point]",1.44,–
COc1cccc(OCc2nnc(SCC(=O)N3c4ccccc4Sc4ccc(Cl)cc43)o2)c1,–,4.11,–
COc1ccc(-c2c(C)nn3c(N)c(-c4ccccc4)cnc23)cc1OC,–,-41.9,"20.6 µM [falling, single point]"
COc1ccc(C2CC(=O)C(C=NCCN3CCOCC3)=C(O)C2)cc1 (stereo not drawn),–,-10.7,–
COc1ccccc1N1CN(CCc2ccccc2)CNC1=S,"29.1 µM [rising, single point]",5.15,–
CCn1c(C)c(C(C)=O)c(N2CCC(C(N)=O)CC2)nc1=S,–,-5.04,–
CCN(CC)CCCN1C(=O)c2oc3ccccc3c(=O)c2C1c1cccc(OC)c1OC (stereo not drawn),"29.1 µM [falling, single point]",10.5,–
CCn1cc(C(=O)NCc2ccc(C)cc2)c(=O)c2cc(S(=O)(=O)N(C)C)ccc21,"14.6 µM [falling, partial curve]",-44.1,"18.4 µM [falling, single point]"
CCn1nnnc1-c1ccc(OC)c(S(=O)(=O)N2CCCCC2)c1,"8.2 µM [rising, partial curve]",–,–
NS(=O)(=O)c1ccc(NC(=S)N2CCN(c3ccc(Cl)c(Cl)c3)CC2)cc1,–,-34.1,"29.1 µM [falling, single point]"
CC(C)n1c(SCC(=O)NC2CCCCC2)nnc1-c1ccco1,–,-3.42,–
Brc1ccc(OCCCCN2CCCCC2)cc1,"6.51 µM [falling, single point]",12.3,–
CCn1c(SCC(=O)Nc2cccc(C)n2)nnc1-c1ccco1,"2.31 µM [rising, partial curve]",7.79,"2.31 µM [rising, partial curve]"
COc1ccccc1-n1c(CNC(=O)c2ccc(S(=O)(=O)N3CCCCC3)cc2)n[nH]c1=S,"29.1 µM [falling, single point]",-23.2,–
Cc1nn(C)c(C)c1S(=O)(=O)N1CCC(C(=O)NC2CCCc3ccccc32)CC1 (stereo not drawn),"0.103 µM [falling, full curve, poor fit]",6.44,–
O=C(COC(=O)C1CCC(=O)N1)Nc1ccccc1Br (stereo not drawn),–,-9.52,"0.461 µM [rising, full curve, poor fit]"
Cc1ccc(-c2cc(C(=O)N/N=C/c3c(C)nn(-c4ccccc4)c3C)[nH]n2)cc1,"18.4 µM [rising, single point]",43.7,"16.4 µM [rising, single point]"
Cc1ccccc1NC(=O)CN1C(=O)N/C(=C\c2ccccc2OCc2ccc(C(=O)O)cc2)C1=O,"29.1 µM [rising, single point]",18.1,–
CCc1c(C)nc2ncnn2c1N1CCC(C(=O)N2CCN(c3ccc(F)cc3)CC2)CC1,"0.731 µM [rising, single point]",-18,–
Cn1nc([N+](=O)[O-])nc1Sc1ccc(C(C)(C)C)cc1,–,-26.3,–

Structure (SMILES),AC50 [1],cell number change [%],AC50 [2]
CC(C)(C)CC(=O)N1CCN(Cc2ccc3c(c2)OCO3)CC1,–,8.45,–
CC(=O)c1ccc(NC(=O)CN2CCN(CC(=O)Nc3ccc(C(C)=O)cc3)CC2)cc1,–,-20.8,–
O=[N+]([O-])c1cccc(-c2nc(Oc3ccc(Cl)cc3)c3ccccc3n2)c1,"6.51 µM [rising, single point]",118,"3.66 µM [rising, full curve]"
O=C(NCCc1ccccn1)c1nc(Cn2cc(Br)cn2)no1,–,25.7,–
O=C(NNC(=O)c1ccccc1F)C1=NN(c2ccccc2)C(=O)CC1,–,3.33,–
C=CCOc1cccc(/C=N/NC(=O)CC(=O)NC2CCCCC2)c1,"3.66 µM [rising, partial curve, poor fit]",-2.64,–
CSc1nc(-c2ccccc2)c(C#N)c(=O)n1C,"9.2 µM [rising, partial curve, poor fit]",20.2,–
Cc1nn(-c2ccccc2)c(Cl)c1/C=C/C(=O)c1ccccc1,"29.1 µM [rising, single point]",-9.59,"0.00461 µM [falling, full curve, poor fit]"
Cc1c(C)[n+](=O)c(-c2ccc(F)cc2)c(C)n1[O-],"0.058 µM [falling, full curve]",-18,–
CC(OC(=O)CCC(=O)c1cccs1)C(=O)Nc1ccc(Cl)cn1 (stereo not drawn),–,-4.06,–
CNC(=O)c1ccc(NC(=O)C2CCN(S(=O)(=O)c3cccc(C(F)(F)F)c3)CC2)cc1,"0.184 µM [rising, full curve, poor fit]",-2.54,–
Cc1ccc(Cn2c(SC3CCOC3=O)nc3ccccc3c2=O)cc1 (stereo not drawn),–,107,"29.1 µM [rising, single point]"
COc1ccc(CCNC(=O)C23CCC(C)(C(=O)C2=O)C3(C)C)cc1OC (stereo not drawn),–,128,–
COc1ccc(-n2c(O)c(/C=N/NS(=O)(=O)c3cc(C)ccc3C)c3ccccc3c2=O)cc1OC,"3.66 µM [falling, partial curve]",-99.5,"2.31 µM [rising, partial curve, poor fit]"
Cc1cc(C)cc(-n2ncc3c2CCCC3NC(=O)c2cc(C)[nH]n2)c1 (stereo not drawn),–,-43.7,"7.31 µM [falling, partial curve]"
Cc1ccc(NC(=O)NC(=O)CSc2n[nH]c(N)n2)c(C)c1,–,12.3,"6.51 µM [falling, single point]"
S=C(NCc1ccccc1)NCc1ccccn1,–,31.8,"16.4 µM [rising, single point]"
Cn1ncc([N+](=O)[O-])c1C(=O)NCc1ccccc1,"2.06 µM [rising, partial curve]",28.4,–
CN(C)S(=O)(=O)c1cccc(N=c2scc(-c3ccc4c(c3)NC(=O)CO4)n2CC2CCCO2)c1 (stereo not drawn),"29.1 µM [rising, single point]",-3.02,–
O=[N+]([O-])c1cc(S(=O)(=O)N2CCCC2)ccc1NCCc1ccccc1,–,0.392,–
O=C1COc2ccc(S(=O)(=O)N3CCN(c4cccc(C(F)(F)F)c4)CC3)cc2N1,–,-7.96,–

Structure (SMILES),AC50 [1],cell number change [%],AC50 [2]
Cc1ccc(OCC(=O)Oc2cccc(C)c2C)cc1,"0.116 µM [falling, full curve, poor fit]",18.6,–
CC(NCc1ccccc1)C1COc2ccccc2O1 (stereo not drawn),"0.184 µM [falling, full curve]",11.9,–
CN1c2ccsc2/C(=N/Nc2ccc(F)cc2)CS1(=O)=O,–,12.9,–
COc1ccccc1OCC(=O)Nc1ccc(N2CCCCC2)cc1,"11.6 µM [rising, partial curve]",67.2,"3.66 µM [rising, full curve]"
C(=C\c1ccco1)/C1=NN(c2ccccc2)C(c2ccco2)C1 (stereo not drawn),"14.6 µM [falling, partial curve, poor fit]",-47.2,"18.4 µM [falling, partial curve, poor fit]"
OCCc1ccc(-c2ccc(Cl)cc2)o1,–,-7.34,"0.231 µM [falling, full curve, poor fit]"
OC[C@H]1O[C@@H](n2cnc3c(NC4CCCC4)nc(Cl)nc32)[C@H](O)[C@@H]1O,"29.1 µM [rising, single point]",11.9,–
CCOc1ccc(NC(=O)CSc2nc(N)c(-c3ccccc3)c(=O)[nH]2)cc1,–,-18.3,–
c1ccc(-c2ccc(CN3C[C@@H]4C(c5ccccc5)C5(c6cccnc6)CC4(C5)[C@H]3c3ccccc3)cc2)cc1 (stereo partly drawn),"0.58 µM [rising, full curve, poor fit]",–,–
CCOC(=O)c1ccc[n+](CC(=O)c2ccc(OC)cc2)c1,–,6.26,"6.51 µM [rising, single point]"
COCCn1c(C)cc(C(=O)COC(=O)c2ccc3c(c2)NC(=O)CS3)c1C,"29.1 µM [rising, single point]",40,"23.1 µM [rising, partial curve, poor fit]"
CCN1CCN(C(=O)c2cc3c(=O)n4ccccc4nc3n2Cc2ccccc2)CC1,–,–,"6.51 µM [rising, single point]"
Cc1cc(NC(=O)CSCC(=O)Nc2nc3ccccc3s2)no1,"0.231 µM [rising, full curve, poor fit]",12.1,–
Cc1ccc(C(C)C)c(OCCNCc2ccccc2)c1,–,-59.1,"20.6 µM [falling, single point]"
CC(C)NC(=S)Nc1ccc(S(=O)(=O)Nc2ncccn2)cc1,"0.82 µM [rising, full curve]",-2.52,–
CCCC(=O)Nc1ccc(S(=O)(=O)Nc2cc(OC)nc(OC)n2)cc1,"0.116 µM [rising, full curve, poor fit]",–,–
CCc1ccc(C(=O)N2CCC(c3nc4ccccc4s3)CC2)cc1,"23.1 µM [rising, partial curve]",58.1,–
Cc1cc(NC(=O)CCC(=O)N(Cc2ccco2)C2(C(=O)NC3CCCC3)CCCCC2)no1,"0.00517 µM [falling, full curve, poor fit]",13.3,–
NS(=O)(=O)c1ccc(CCNS(=O)(=O)c2ccc3c(c2)NC(=O)CO3)cc1,–,-23.3,–
CC1CCCN(c2oc(-c3cccc4ccccc34)nc2C#N)C1 (stereo not drawn),"0.291 µM [rising, full curve, poor fit]",38.9,"13 µM [rising, partial curve]"

# Of the compounds above, two have a tert-butyl group:
Structure (SMILES),AC50 [1],cell number change [%],AC50 [2]
Cn1nc([N+](=O)[O-])nc1Sc1ccc(C(C)(C)C)cc1,–,-26.3,–
CC(C)(C)CC(=O)N1CCN(Cc2ccc3c(c2)OCO3)CC1,–,8.45,–
